The values below come from PubChem BioAssay AID1508600 (Functional Genomics Laboratory (NCATS/FGL), 2020).

The campaign covered roughly 53,000 sequences. About 3,700 (7%) were called active.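 How the source made its calls: active means gene knockdowns whose robust z-score for IL-1 alpha signal is at least 2 or at most -2, so actives lie on both sides; inactive means the rest.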 The list shows a part of the results.

The nature of this test: Components of the Cytosolic LPS Sensing Pathway: Gene Identification via Genome-wide siRNA Screen.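 Further: robust z of the log signal after scaling to non-targeting control siRNA wells of the plate.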 The note with it: RAW264.7 macrophages, IL-1a HTRF, actives lie on both sides, screened at 100 nM (by protocol), cells primed 5 h with Pam3CSK4 first. Put shortly:
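Cells (RAW264.7, 1×10^4 per well) were transfected with siRNA at 100 nM and cultured 48h at 37 degrees C. Pam3CSK4 was added for 5 hours; LipidA transfection followed for 24 hour. IL-1a was then measured by HTRF.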
Take CCAACCUAAGCACUCCAAATT against Setd1a: the z-score is inactive: -1.14.

In the case of GCACCUGGUGAAUUUUACCTT against Tmem106c, the z-score is inactive: -0.85. For GCAGAGACUACUUAGCAAGTT against Adprm the value was active: 2.29; for GGUAUUUUGAUGUUGGACUTT against Hhat, inactive: 0.989. As for GGAACAGAGGAGGUAAAGCTT against Gtpbp2, the z-score is inactive: -1.99.

On to CGGGAUUCAUAGAAACAAATT against Dclk1, for which the z-score is inactive: 0.624. For GGCCUUUUAUCAACGCAGUTT against Npc1l1, the z-score is inactive: 0.0833. For GCAGAUCACUGGAGUAAACTT against Spz1 the value was inactive: -0.381; for GGUGAUUGCCCACAAUCAGTT against Mthfs, inactive: -0.554.

With GGUUCAAUUCACAGAGCGCTT against Mrpl21, the z-score was inactive: 1.37. As for GCAGUGGAAGUGAAUCUCGTT against Rwdd4a, the figure is inactive: 0.169. As for GGUGUCUUAUGAGCAAUAUTT against Pdcd6, the figure is inactive: -1.12; as for GGACACAGUCAGACAAAUCTT against Olfr1161, inactive: -1.93; as for GGCUUCCACAUAAAAACGATT against Dctpp1, inactive: 0.474. As for GGUUAUGCAUUACUCUCUUTT against Prkdc, the figure is inactive: 0.0207. Consider GCAUUUGAACAGUGUGCCATT against Zbtb8os, for which the z-score was inactive: -1.61.

GCAUCGACAAAUGAAUUGGTT against Pyurf: the z-score is inactive: -0.973. For GGUCACCACCAUAGCAAGGTT against Gstt4 the value was inactive: 0.485; for CCGUGCAGAUUAACUUCUUTT against Plk1, inactive: -1.69. With GCCUCAUUUAUCAUGCGCGTT against Zfp772, the z-score is inactive: 0.523. For GGCAGUUUGGACAGCAAGATT against Mybl2 the value was inactive: 0.207. As for GGGAAAAUCCCAAAACUGUTT against Serpinb1a, the z-score is inactive: -0.159. CCUCCUCUAGGGUAGGUAGTT against Pitpnm3: the z-score was inactive: -1.24. For GGUUACUUCAAAGACAAAGTT against Med31 the value was inactive: 1.06; for GGAGGAUCCUCUAAAACAGTT against Slc23a3, inactive: -1.21. As for GGUCACAUUUAAUGUCACATT against Itgam, the figure is inactive: -0.789.

Turning to GGAGGUAUUCACAGAACUGTT against U2af1l4, the z-score is inactive: 0.532. For CCUGUCGUUUAACCCUGUCTT against Fis1 the value was inactive: -0.96; for CCAUGCCCACUGGAUAGAUTT against Nat14, inactive: -1.21; for GCCCAUGUGUAAUACAUUUTT against Prps1, inactive: 0.789. As for AGGUAGAAAAACAAUACCGTT against Ikbip, the figure is inactive: 1.48; as for GGGCUUGUUUUUGCACUUATT against Blcap, inactive: 0.993; as for GGCUGUGCCAAUUUAAUUUTT against Dsn1, inactive: 0.0219. For “GGCCAUCGCACUUAAACUUTT against 1700123K08Rik” the value was inactive: -0.578. GGCUGGAAAAUCAAUUCUUTT against St8sia4: the z-score is inactive: -0.59.

On to GGAGAAAAGAGUUUGCCCGTT against Wfdc12, for which the z-score is inactive: -0.329.

For the sequence GGAGCUACGAAAAUUAACATT against Thsd4, the z-score is inactive: -0.138. As for GGAGAGUACAAGGUAUCUUTT against Tab2, the figure is inactive: 0.122; as for GGCAUGUUCCUCAUAUGCCTT against Lrit1, active: -2.01.

On to GGGAGAUAAAAAGUUAAGGTT against Bclaf1, for which the z-score was inactive: 1.38. As for GGACUCAAGGAACCAAAAUTT against Rps3a1, the z-score is inactive: -0.758. For GGGUGAAGGACAAGAAAAUTT against Hoxd13 the value was inactive: 0.625; for GGAAGAAAUGAGAAGGAUATT against Cadm3, inactive: 0.139. As for GGAAGACAUAUUUCAACAGTT against Ehhadh, the figure is inactive: -1.37; as for GGCAUGUUGGAGGUAAUAATT against Nanp, inactive: 0.107; as for GCGAGGACAACGGAUUUUATT against Barhl2, inactive: -0.212. For GGUCUCACAAAAACAGUUCTT against Casq2 the value was inactive: -0.317. With GGAAGUGUGACAGAAUGCGTT against Loxl3, the z-score was inactive: -1.29. Consider GGAGUUACGGGAUUCCGUUTT against Kras, for which the z-score was inactive: 1.7. For GGUUCUUACUUGUAAAUAGTT against Sdad1 the value was inactive: -1.32. For GCAACCUCUCCUCUCUAGATT against Olfr15 the value was inactive: -1.11; for “GGAGCAAUGGCUAGCAGUUTT against 3110040N11Rik”, inactive: 0.0159. For GGCAGUCGAUACAAACUUUTT against Fto the value was inactive: -0.481; for CCUAGAGCUUUUCAGAAUATT against Rsl1d1, inactive: 0.4; for GGAGCAUGGAUAAUUACAGTT against Trpm6, inactive: -0.241. Turning to CCAUAUGGUGGUCACGACATT against Dcstamp, the z-score is inactive: 1.98.

GGAGUUUCUCUUUAAUCCUTT against Hoxc8: the z-score is inactive: 0.468. For “GCCCAAACAUGCAUAUGGCTT against 2010003K11Rik” the value was inactive: -1.35. For GCUCAUAUACACCAUUUCUTT against Tmem171 the value was inactive: -1.12. Consider CCCAACUGACAUCUUCCUATT against Gzmb, for which the z-score is active: 2.86.

With CCUAAAAGGGUUUUUGCUUTT against Macroh2a3, the z-score was inactive: 0.763.

Consider GGCCAAGAUCACCAUCGUGTT against Cldn3, for which the z-score was inactive: 0.181. With ACCAGAACCAGACGCGUAATT against Cox6b2, the z-score was inactive: 0.848. For GGCACCUUUGCCUUGACAUTT against Slc26a7 the value was inactive: 0.135; for GGUUCUCAGGGUCCUAAACTT against Erv3, inactive: -0.904; for “GGUAGUGGAAUGUGGGAGUTT against 2610044O15Rik8”, inactive: 1.16. In the case of GGAAGUGUGCCUAUUUGUGTT against Pnpla6, the z-score was inactive: 0.0961. For CCAUUUGUGUAACACCAAUTT against Eif4h the value was inactive: -0.408; for GCAAGUACGCUGCUCUGUCTT against Eif4b, inactive: 0.397. For GCACAUGUGACUAGAUUUATT against Cetn2 the value was inactive: 0.904; for GGUGGACAGAUUUAAGCUUTT against Chtf8, inactive: 0.837; for GGCGAGCUGGACAGAUUUGTT against Nudt6, active: 3.33. For GGACAAAGUGGCCUUUAUCTT against Decr2 the value was inactive: -0.811.

As for GGACUAUCUCAUCGGAACCTT against Tmco1, the z-score was inactive: 0.824. For GGCAGCUUAGCUGUUCGUCTT against Socs4 the value was inactive: -0.664; for GCCAAUCAAAGACAAGCUUTT against Vkorc1l1, inactive: -1.43.

As to GCAACCUCCUUCAAACUUGTT against Ebf2, the z-score was inactive: -0.919.

For CCGUUACCUUCUUAGAAAATT against Rnf150, the z-score is inactive: 0.448. For GGACCAUGCACUUAUGACCTT against Syce2 the value was inactive: -1.01. Take GGCCUUAAAGAAACACAAGTT against Hnrnph2: the z-score is active: 2.3. In the case of GGGACAUGAAGAAAAUGGATT against Abcf2, the z-score is inactive: -0.0385.

Take CGUGUUGACUUGUAUUUGUTT against Tmem45a: the z-score is inactive: -0.326. On to GCCAAAGUCUUGCUAUGUGTT against Uba7, for which the z-score is inactive: -0.481.

For GGUGAUUAAAUACUGCUCATT against Vmn1r35, the z-score was inactive: -0.26. CCACACAACAAAAAAGUUGTT against Zfp663: the z-score was inactive: -1.12.

With GCGUGUGAGUGUGAAGGAATT against Hcar1, the z-score was inactive: -1.07. For GCUAAUGAAGCAGAGCUGUTT against Olfr1359 the value was inactive: 0.388. For the sequence CCAGGAUUGGACUGAUAGUTT against Hoga1, the z-score was inactive: 0.815. For CGACAAGGUAUGGAAAGCUTT against Tshz2 the value was inactive: -1.8; for GGUUAAUGGGAAACUCUGCTT against Pias3, inactive: 0.327; for “GGAAGAUUCAUUCCAAAGATT against A430090L17Rik”, inactive: 0.891. As for GCUGAUUGCUUCACCUCAUTT against Sall2, the figure is inactive: -0.444; as for GGAACAAAGAGAAGUGCAGTT against Ecm1, inactive: 1.19; as for GGCUGCUGUGAAAUCAGAATT against Shisa7, inactive: -0.0213. Regarding GCUCAUUGACAGUAUCAGCTT against Shroom2, the z-score was inactive: 0.433. As for GGGAUAAAGAGAGACCCAATT against Flywch1, the figure is inactive: 0.889; as for CGGUAACUAUGCAAAUUCATT against Ckap4, inactive: 1.43; as for GGUGUGCUGAGAAAAAAUATT against Acot10, inactive: 0.847. For GGGCAUAUUUGGAAUCUGATT against Rtn4 the value was active: 2.51; for GGUCACCUGGUGUCAAUACTT against Reg2, inactive: -0.968.

On to CCCUCAGUUGGUCACAUGUTT against Mpc1, for which the z-score is inactive: -0.182. For CCUGAAUGACAACUAUAUCTT against Glt8d2 the value was inactive: 0.0418; for CCAUUAUGGGAGGAAGAUUTT against Clvs2, inactive: 0.969.

In the case of CCACCAAUUUGUAAGUAUATT against Lipi, the z-score is inactive: -0.737. For CCUCGUAUUAUCAUGUGAATT against Gmppb the value was inactive: 1.34. On to GCUAUGGUAGCUGAUAACATT against Rell1, for which the z-score is inactive: 1.21.

With GGAACUUACAUGAAUUCCATT against Slco1a4, the z-score was inactive: -0.229.
